According to patent US20220169708A1 (University of California, published 2022):
No constants are given. Whether binding was seen depends on the method and setting. Some entries that bind do so weakly or less than the wild type.

B1: VHH CLONE 320 (VHH)
VHH: DVQLQASGGGLVQPGGSLRLSCATSTSVFSITTLGWYRQAPGKQRELVASMKRGGDTNYADSVKGRFTISRDNARNTVFLQMNNLTTEDTAVYYCNAAILAYTGAVTNYWGQGTQVTVSS
notes: The entry includes the C-terminal 6xHis and HA tags; also called nanobody 320
B2: VHH CLONE 205 (VHH)
VHH: DVQLQASGGGLVQPGGSLRLSCAATGSTDRIAFMGWYRQAPGKLRELVAGITSDGRTNYADDVDVSGRFTISRDSAKNMVYLQMNSLKPEDTAVYYCNADITLAMGGLRVYWGQGTQVTVSS
notes: The entry includes the C-terminal 6xHis and HA tags
B3: VHH CLONE 213 (VHH)
VHH: EVQLVESVGGLVQPGGSLRLSCVASGNIGDIYTMGWYRQAPGKQRELVATVGDGGLTNFVDSVKGRFTISRDKSKGTVSLEMNSLKPEDTAVYYCNADVRIGPTGLRVYWGQGTQVTVSS
notes: as for B2
B4: VHH CLONE 103 (VHH)
VHH: EVQLMESAGGLVRPGGSLRLSCVASGSIGDIYSMGWYRQAPGKQRELVATVGAGGLTDYGDSVLGRFTISRDKTKGTVSLEMNSLKPEDTAVYYCNADVSIGPTGLRVYWGQGTQVTVSS
notes: as for B2
B5: VHH CLONE 302 (VHH)
VHH: QVKLQESGGGLVQPGGSLRLSCVASGNIGDIYTMGWYRQAPGKQRELVATVGDGGLTNFVDSVKGRFTISRDKSKGTVSLEMNSLKPEDTAVYYCNADVRIGPTGLRVYWGQGTQVTVSS
notes: as for B2
B6: VHH CLONE 220 (VHH)
VHH: EVQLVESGGGLVQPGGSLRLSCVASGNIGNIYTMGWYRQAPGKQRELVAAVGAGELTNYVDSVKGRFTISRDKSKGTVSLEMNSLKPEDTAVYYCNADVSIGPTGLRVYWGQGTQVTVSS
notes: The entry includes the C-terminal 6xHis and HA tags; also called nanobody 220
B7: VHH CLONE 108 (VHH)
VHH: EVQLVESGGGLVQPGGSLRLSCEATGNFDDRGIGWFRQAPGKEREGIACITTRGRTHYAESVEGRFTISTDIANNAVYLQMNSLKPEDTAVYYCAKAIRLTTDRTQCVAFPGVSWGRGTQVTVSS
notes: as for B2
B8: VHH CLONE 116 (VHH)
VHH: EVQLVESGGGLVQPGGSLRLSCTASGSILKIYTMDWYRQAPGKQRDLVATVSSRGDTDYTDSVKGRFTISRDDAKNTAYLQMSSLKPEDTAVYYCNFYIQSRTAPFNDYWGQGTQVTVSS
notes: as for B2

Molecular target: cystic fibrosis transmembrane conductance regulator (CFTR) inhibitory factor (Cif) (Pseudomonas aeruginosa)
Assay: sandwich ELISA, pAb capture, VHH detection

Binder | binding
B1 | binds
B2 | binds
B3 | binds
B4 | binds
B5 | binds
B6 | binds
B7 | binds
B8 | binds
